Data as given in the supplement of paper PMC11348887.
Structures can show the parent of a compound that is named as a salt. Some of the results follow. Most values lie at the level of the controls, where differences are scatter. *1 amine or outer side, *2 acyl side, *3 side chain or, on linkers, in order; H or OH if unused. Where a SMILES comes first, the peptide text is derived from it. Bridges are numbered along the chain shown (N, C = ends). [ ]: non-standard residue; d: D form. The star is where a group is joined. hTyr(3S-OH,4S-OH,3'-OSO3H) = N[C@H](C(=O)O)[C@H](O)[C@@H](O)c1ccc(O)c(OS(=O)(=O)O)c1; Orn(4R-OH,5R-OH) = O=C([C@H](C[C@@H](O)[C@@H](O)N[*:3])N[*:1])[*:2]; Pro(3S-OH,4S-Me) = C[C@H]1CN[C@H](C(=O)O)[C@H]1O; X3 = CCCCCOc1ccc(-c2cc(-c3ccc(C(=O)*)cc3)no2)cc1; Gln(3R-OH) = NC(=O)C[C@@H](O)[C@H](N)C(=O)O; Hyp = O=C(O)[C@@H]1C[C@@H](O)CN1

System: hPSC-derived cortical neurons (WA09)
Assay: KCl-induced FOS+/EGR-1+ double-positive nuclei fraction z-score (KCl minus unstimulated); higher = stronger activity-induced IEG response
Details: 5 µM; treatment: days 7-14 after plating, readout day 21

SMILES	KCl-induced FOS+/EGR-1+ double-positive nuclei fraction z-score
O=C(O)c1cccnc1Nc1cccc(C(F)(F)F)c1 [Niflumic acid]	-0.333
CC(=O)Oc1ccc(C(c2ccc(OC(C)=O)cc2)c2ccccn2)cc1 [Bisacodyl]	-0.116
C[C@H]1Oc2cc(cnc2N)-c2c(nn(C)c2C#N)CN(C)C(=O)c2ccc(F)cc21	0.0606
O=C(Nc1cccc(Nc2ncc(Br)c(NCCc3cnc[nH]3)n2)c1)N1CCCC1	-0.731
Cc1c(-c2ccc(O)cc2)n(Cc2ccc(OCCN3CCCCCC3)cc2)c2ccc(O)cc12 [Bazedoxifene Acetate]	-0.521
CN1CCC(CNc2ccc3ncc(-c4cccc(OC(F)(F)F)c4)n3n2)CC1 [SGI-1776 free base]	-0.956
Nc1ccn([C@@H]2O[C@H](CO)[C@@H](O)C2(F)F)c(=O)n1 [Gemcitabine HCl]	-1.79
Nc1ccc(S(=O)(=O)c2ccc(N)cc2)cc1 [Dapson]	0.218
CCOC(=O)[C@H](CCc1ccccc1)N[C@@H](C)C(=O)N1C(=O)N(C)C[C@H]1C(=O)O [Imidapril HCl]	0.442
COc1ccc(N2C(=O)/C(=C\c3ccc([N+](=O)[O-])s3)SC2=S)cc1	-0.0978
COc1cc(C(C)=O)ccc1O [Apocynin]	0.117
O=C(O)c1cc(=O)[nH]c(=O)[nH]1 [Orotic acid (6-Carboxyuracil)]	1.17
C[C@@H](NC(=O)c1ncnc(N)c1Cl)c1ncc(C(=O)Nc2cc(C(F)(F)F)c(Cl)cn2)s1	-0.416
O=C(Nc1ccc(S(=O)(=O)Nc2ccccc2Cl)c(Cl)c1)c1ccccn1	1.73
CN(C)CCC[C@@]1(c2ccc(F)cc2)OCc2cc(C#N)ccc21 [Escitalopram Oxalate]	2.16
C[C@H](CCC(=O)NCCS(=O)(=O)O)[C@H]1CC[C@H]2[C@@H]3[C@@H](O)C[C@@H]4C[C@H](O)CC[C@]4(C)[C@H]3CC[C@]12C [Sodium Tauroursodeoxycholate (TUDC)]	1.18

SMILES	KCl-induced FOS+/EGR-1+ double-positive nuclei fraction z-score
Nc1cccc2c1CN(C1CCC(=O)NC1=O)C2=O (configuration not stated) [Lenalidomide (CC-5013)]	0.802
C[C@H]1[C@H](OC(=O)CCC(=O)O)O[C@@H]2O[C@@]3(C)CC[C@H]4[C@H](C)CC[C@@H]1[C@@]24OO3 [Artesunate]	-0.947
NC(=O)N1c2ccccc2C=Cc2ccccc21 [Carbamazepine]	0.432
COc1ccc(CCc2nc3cc(-c4c(C)noc4C)ccc3n2C[C@H](C)N2CCOCC2)cc1Cl	-0.0226
CCS(=O)(=O)c1cccc(-c2cc(C(=O)NC3CCN(C)CC3)c(C)c3[nH]c4ncc(C)cc4c23)c1	-0.93
CC(C)(C)c1ccc(S(=O)(=O)NCc2ccc(C(=O)Nc3cccnc3)cc2)cc1	0.362
C=CC(=O)Nc1ccc2ncnc(Nc3cccc(Br)c3)c2c1	-0.0454
CC(=O)O[C@H]1Cc2ccccc2N(C(N)=O)c2ccccc21 [Eslicarbazepine Acetate]	-0.0801
O=C(O)CCc1nc2ccccc2[nH]1 [Procodazole]	1.1
O=C(O)c1ccccc1Nc1cccc(C(F)(F)F)c1 [Flufenamic acid]	-0.605
O=C(Nc1ccccc1)Nc1ccc(-c2ccc(C(=O)[C@@H]3CCC[C@H]3C(=O)O)cc2)cc1	0.499
CCCCCOc1ccc(-c2cc(-c3ccc(C(=O)N[C@H]4C[C@@H](O)[C@@H](O)NC(=O)[C@@H]5[C@@H](O)[C@@H](C)CN5C(=O)[C@H]([C@H](O)CC(N)=O)NC(=O)[C@H]([C@H](O)[C@@H](O)c5ccc(O)c(OS(=O)(=O)O)c5)NC(=O)[C@@H]5C[C@@H](O)CN5C(=O)[C@H]([C@@H](C)O)NC4=O)cc3)no2)cc1 [Micafungin Sodium] (X3-[Orn(4R-OH,5R-OH)]T[Hyp][hTyr(3S-OH,4S-OH,3'-OSO3H)][Gln(3R-OH)][Pro(3S-OH,4S-Me)]; lactam 1-C)	1.57
CC(C)(C)c1cc(C(C)(C)C)c(NC(=O)c2c[nH]c3ccccc3c2=O)cc1O [Ivacaftor (VX-770)]	0.158
O=C(COc1cccc2c(=O)[nH]ccc12)c1ccccc1	-2.84
O=C(O)CC[C@H]1CC[C@@](c2cc(F)ccc2F)(S(=O)(=O)c2ccc(Cl)cc2)CC1	0.465
CCNC(=O)[C@H]1O[C@@H](n2cnc3c(N)nc(NCCc4ccc(CCC(=O)O)cc4)nc32)[C@H](O)[C@@H]1O	0.722

Gathered by group, the entries above containing a tert-butyl group
SMILES	KCl-induced FOS+/EGR-1+ double-positive nuclei fraction z-score
CC(C)(C)c1ccc(S(=O)(=O)NCc2ccc(C(=O)Nc3cccnc3)cc2)cc1	0.362
CC(C)(C)c1cc(C(C)(C)C)c(NC(=O)c2c[nH]c3ccccc3c2=O)cc1O [Ivacaftor (VX-770)]	0.158
